Results published in paper PMC9959048, “Lipidation of Naturally Occurring α-Helical Antimicrobial Peptides as a Promising Strategy for Drug Design” (International Journal of Molecular Sciences, 2023).
Residues, ends and D or L forms follow the SMILES beside them. *: point of attachment. Decanoyl = CCCCCCCCCC(=O)*; Octanoyl = CCCCCCCC(=O)*

Assays:
POPG LUVs = test: Isothermal titration calorimetry, binding to POPG LUVs; conditions: ITC, 25 °C
Procedure: (§1) Large unilamellar vesicles (LUV) were obtained by extrusion of MLV liposomes through polycarbonate membrane filters with a pore diameter of 100 nm (Whatman International Ltd., Kent, UK) using a mini-extruder (Avanti Polar Lipids, Inc., Alabaster, AL, USA).
(§2) The thermodynamic parameters of the interactions of the lipopeptides with POPG and POPC liposomes were determined by isothermal titration calorimetry (ITC). Measurements were performed at 25 °C using an AutoITC microcalorimeter (MicroCal Inc., Northampton, MA, USA) with a 1.4491 mL sample and reference cells. The experiment consisted in the titration of a buffered peptide solution with a concentration of 0.05 and/or 0.07 mM with a buffered solution containing POPG or POPC LUVs with a lipid concentration of 1.3 and 1.8 mM (10.02 µL; 29 injections, 2 µL for the first injection only), as it was described previously. The result of the titration was a thermogram showing a series of peaks corresponding to the titration steps. A titration curve was obtained after integration of the peak areas. The obtained isotherms were fitted to the “one set of sites” or “two sets of sites” models available in the ORIGIN 7.0 (MicroCal Inc., Northampton, MA, USA), which made it possible to determine the enthalpy (ΔH), the binding constant (KITC) and the stoichiometry (N) of the interactions between the lipopeptide and the lipids. The following formula was used to calculate the entropy change (ΔS) and the Gibbs free energy (ΔG): ΔG=−RTln(55.5KITC)=ΔH−TΔS where: factor 55.5 is the molar concentration of water, R is the gas constant (1.986 cal·mol^−1·K^−1), and T is the absolute temperature.

POPC LUVs = test: Isothermal titration calorimetry, binding to POPC LUVs; conditions: ITC, 25 °C, 1.3 mM POPC to 0.05 mM C10-LL-I
Procedure: as §1, §2

[1] = 0.05 or 0.07 mM peptide titrated with 1.3 or 1.8 mM POPG LUVs, one set of sites model (C10-LL-I: two sets of sites, first line)
[2] = one set of sites model (C10-LL-I: two sets of sites, first line)
[3] = ΔG=−RTln(55.5KITC), one set of sites model (C10-LL-I: two sets of sites, first line)
[4] = two sets of sites model, second line

Compound | N (stoichiometry), POPG (POPG LUVs; [1]) | TΔS, POPG (POPG LUVs; [2]) | ΔH, POPG (POPG LUVs; [2]) | ΔG, POPG (POPG LUVs; [3]) | N (stoichiometry), POPG (POPG LUVs; 1.8 mM POPG to 0.07 mM C10-LL-I, two sets of sites model, second line) | TΔS, POPG (POPG LUVs; [4]) | ΔG, POPG (POPG LUVs; [4]) | ΔH, POPG (POPG LUVs; [4]) | N (stoichiometry), POPC (POPC LUVs) | TΔS, POPC (POPC LUVs) | ΔG, POPC (POPC LUVs) | ΔH, POPC (POPC LUVs)
CCCCCCCCCC(=O)N[C@@H](CCCCN)C(=O)N[C@@H](CCCNC(=N)N)C(=O)N[C@@H](Cc1ccccc1)C(=O)N[C@@H](CCCCN)C(=O)N[C@@H](CCCCN)C(=O)N[C@@H](Cc1ccccc1)C(=O)N[C@@H](Cc1ccccc1)C(=O)N[C@@H](CCCCN)C(=O)N[C@@H](CCCCN)C(=O)N[C@@H](CC(C)C)C(=O)N[C@@H](CCCCN)C(N)=O [C10-ATRA-1] (Decanoyl-KRFKKFFKKLK-NH2) | 3.16 ± 0.05 | 12.20 ± 0.83 kcal/mol | 0.22 ± 0.01 kcal/mol |  |  |  |  |  |  |  |  | 
CCCCCCCC(=O)N[C@@H](CCCCN)C(=O)N[C@@H](CCCNC(=N)N)C(=O)N[C@@H](Cc1ccccc1)C(=O)N[C@@H](CCCCN)C(=O)N[C@@H](CCCCN)C(=O)N[C@@H](Cc1ccccc1)C(=O)N[C@@H](Cc1ccccc1)C(=O)N[C@@H](CCCCN)C(=O)N[C@@H](CCCCN)C(=O)N[C@@H](CC(C)C)C(=O)N[C@@H](CCCCN)C(N)=O [C8-ATRA-1] (Octanoyl-KRFKKFFKKLK-NH2) | 2.84 ± 0.08 | 10.5 ± 0.36 kcal/mol | 0.27 ± 0.01 kcal/mol | -10.30 ± 0.36 kcal/mol |  |  |  |  |  |  |  | 
CCCCCCCC(=O)N[C@H](C(=O)N[C@@H](CC(N)=O)C(=O)N[C@@H](Cc1c[nH]c2ccccc12)C(=O)N[C@@H](CCCCN)C(=O)N[C@@H](CCCCN)C(=O)N[C@H](C(=O)N[C@@H](CC(C)C)C(=O)NCC(=O)N[C@@H](CCCCN)C(=O)N[C@H](C(=O)N[C@H](C(=O)N[C@@H](CCCCN)C(=O)N[C@H](C(=O)N[C@@H](C)C(=O)N[C@@H](CCCCN)C(N)=O)C(C)C)[C@@H](C)CC)[C@@H](C)CC)C(C)C)C(C)C [C8-LL-I] (Octanoyl-VNWKKVLGKIIKVAK-NH2) | 2.05 ± 0.18 | -3.10 ± 1.36 kcal/mol | -10.9 ± 1.36 kcal/mol | -7.80 ± 0.09 kcal/mol |  |  |  |  |  |  |  | 
CCCCCCCCCC(=O)N[C@H](C(=O)N[C@@H](CC(N)=O)C(=O)N[C@@H](Cc1c[nH]c2ccccc12)C(=O)N[C@@H](CCCCN)C(=O)N[C@@H](CCCCN)C(=O)N[C@H](C(=O)N[C@@H](CC(C)C)C(=O)NCC(=O)N[C@@H](CCCCN)C(=O)N[C@H](C(=O)N[C@H](C(=O)N[C@@H](CCCCN)C(=O)N[C@H](C(=O)N[C@@H](C)C(=O)N[C@@H](CCCCN)C(N)=O)C(C)C)[C@@H](C)CC)[C@@H](C)CC)C(C)C)C(C)C [C10-LL-I] (Decanoyl-VNWKKVLGKIIKVAK-NH2) | 1.31 ± 0.58 | 10.60 ± 1.49 kcal/mol | -0.01 ± 0.03 kcal/mol | -10.60 ± 1.49 kcal/mol | 0.13 ± 1.53 | 5.66 ± 38.3 kcal/mol | -8.77 ± 0.73 kcal/mol | -3.11 ± 38.3 kcal/mol | 0.52 ± 0.34 | 7.24 ± 0.91 kcal/mol | -8.4 ± 0.34 kcal/mol | -1.16 ± 0.85 kcal/mol
CCCCCCCC(=O)N[C@H](C(=O)N[C@@H](CCCCN)C(=O)N[C@@H](CCCCN)C(=O)N[C@H](C(=O)N[C@@H](CC(C)C)C(=O)N[C@@H](CO)C(=O)N[C@@H](CCCCN)C(=O)N[C@H](C(=O)N[C@@H](CCCCN)C(=O)N[C@@H](CCCCN)C(=O)N[C@@H](CC(C)C)C(=O)N[C@@H](CC(C)C)C(=O)N[C@@H](CCCCN)C(N)=O)[C@@H](C)CC)[C@@H](C)CC)[C@@H](C)CC [C8-LK6] (Octanoyl-IKKILSKIKKLLK-NH2) | 1.02 ± 0.05 | 12.00 ± 0.46 kcal/mol | 0.97 ± 0.05 kcal/mol | -11.00 ± 0.46 kcal/mol |  |  |  |  |  |  |  | 
